Reference: article PMC11705651
Results are given in words; binding and its absence hold for the method and conditions named. In cells and extracts the contact can be indirect. A result given as binding can be weak or reduced; the word gives no strength.

Target: T1, nuclear factor erythroid 2-related factor 2 (NRF2) (human (endogenous in SUM159PT)) (UniProt Q16236)
T1 sequence: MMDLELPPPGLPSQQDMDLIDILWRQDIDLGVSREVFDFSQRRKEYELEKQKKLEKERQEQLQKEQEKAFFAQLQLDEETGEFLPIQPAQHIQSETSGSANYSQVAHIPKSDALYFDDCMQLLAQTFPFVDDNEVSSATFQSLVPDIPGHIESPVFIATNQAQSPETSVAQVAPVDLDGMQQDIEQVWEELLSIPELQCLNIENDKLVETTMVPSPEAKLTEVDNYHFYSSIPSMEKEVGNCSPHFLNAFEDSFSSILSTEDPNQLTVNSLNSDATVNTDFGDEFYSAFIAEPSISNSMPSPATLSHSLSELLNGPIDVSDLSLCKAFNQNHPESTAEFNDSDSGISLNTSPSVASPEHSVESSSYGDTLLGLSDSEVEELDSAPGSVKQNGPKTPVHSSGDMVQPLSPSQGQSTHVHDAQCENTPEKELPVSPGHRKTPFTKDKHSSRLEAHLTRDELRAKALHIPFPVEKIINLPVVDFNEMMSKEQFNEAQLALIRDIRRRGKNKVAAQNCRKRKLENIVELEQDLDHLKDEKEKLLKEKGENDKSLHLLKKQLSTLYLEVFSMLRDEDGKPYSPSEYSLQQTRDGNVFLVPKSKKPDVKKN
Test: co-IP; endogenous proteins of SUM159PT cell lysates (wild type or EGFR(Y1068F) cells; with and without CAP treatment or p38 siRNA); target antibody overnight at 4°C, protein A and protein G agarose, washed with lysis buffer, western blot

binding: binds
Substance: glutathione peroxidase 4 (GPX4) (human (endogenous in SUM159PT)) (enzyme)
